Values joined by “and” are separate entries in the source; they are usually repeats but may differ in a detail not shown here. Equal entries are not always repeated. The campaign covered roughly 400,000 compounds. About 13,000 (3.2%) were called active. The inconclusive results got no clear call from the source; some entries with a clear call stand among them for comparison. Calls come from the whole dose curve; as a rule, active = well fitted cell-killing curve with a large enough effect; inconclusive = small, poorly fitted or top-dose-only effect, or effect the other way; inactive = flat fitted curve, though single readings scatter. Potencies beside an inconclusive call are fits to weak or partial responses and may not hold up. Some structures have more than one record in an assay (separate samples or runs), and their calls can disagree.
Experiment: qHTS assay for MDR1-selective chemotherapeutics: Primary screen using the drug-selected MDR subline cells KB-V1; note: nearly all actives have a fitted effect of over 60% in size
Details: KB-V1 MDR cells viability, CellTiter-Glo, 72 h; activity change, negative = cytotoxicity: at 46.1 µM (top of the series)
In short: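 Drug-selected KB-V1 cells, grown in DMEM lacking phenol red with 10% FBS, receive compound titrations; after three days at 37 degrees C, surviving cell ATP is quantified by CellTiter-Glo luminescence and responses normalized and curve-fitted.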
With `CCC(c1nnnn1Cc1cccs1)N1CCN(c2nc3ccccc3s2)CC1` (centres undefined) the Potency was inconclusive: 29.1 µM [cytotoxic, single point].
With `Cc1c(C(=O)OC(C)C)sc(NC(=O)C2c3ccccc3Oc3ccccc32)c1C(=O)OC(C)C` the Potency was “inactive”.
With `Cc1ccc(Sc2c(C)nn(C(=O)c3ccc(Cl)cc3)c2C)cc1` the Potency was “inactive”.
For `CCOc1ccc(NC(=O)Nc2cccnc2)cc1`, the Potency was inconclusive: 29.1 µM [cytotoxic, single point].
For `COC(=O)c1cccc(N(CC(=O)NC2CCCCC2)C(=O)CNC(=O)c2cccs2)c1`, the Potency was “inactive”.
With `CCOc1ccc(C2C(C(=O)c3ccco3)=C(O)C(=O)N2CCN2CCOCC2)cc1` (centres undefined) the Potency was inconclusive: 29.1 µM [rising, single point].
For `O=C(NCc1cccnc1)C1CCC(c2ccc(Cl)cc2)CC1` (centres undefined), the Potency was inconclusive: 18.4 µM [cytotoxic, single point].
For `COc1ccc(C(=O)NNC(=O)C2CCCO2)cc1` (centres undefined), the Potency was “inactive”.
In the case of `O=C(NCc1ccc(F)cc1)C1CCCN(S(=O)(=O)c2cccc3nsnc23)C1` (centres undefined), the Potency is reported as inconclusive: 20.6 µM [cytotoxic, partial curve, poor fit].
With `CC(C)C1N=C2c3ccccc3N=C(SCC(=O)NCc3ccc(Cl)cc3)N2C1=O` (centres undefined) the Potency was “inactive”.
For `Cc1ccc(Cn2c(Sc3ncccn3)nc3c2c(=O)[nH]c(=O)n3C)cc1`, the Potency was inconclusive: 29.1 µM [cytotoxic, single point].
In the case of `O=C(Nc1ccc2c(c1)CCCN2C(=O)c1cccs1)c1ccccc1`, the Potency is reported as inconclusive: 29.1 µM [cytotoxic, single point] and inconclusive: 3.66 µM [cytotoxic, partial curve].
For `O=C(Nc1ccc(OCC(=O)N2CCOCC2)cc1)c1ccccc1Cl`, the Potency was “inactive”.
In the case of `Cc1c(/C=N/NC(=O)CNc2ccccc2)c2ccccn2c1C(=O)c1ccc(Cl)cc1`, the Potency is reported as active: 2.31 µM.
For `COc1ccc(-n2nc(C(=O)N3CCN(c4ccccc4OC)CC3)c3c4ccccc4n(C)c3c2=O)cc1Cl`, the Potency was “inactive”.
For `CCN1CCN(Cc2ccc(NC(=O)c3ccc(C)c(NC(=O)c4cc(-c5ccc(Br)cc5)n[nH]4)c3)cc2C(F)(F)F)CC1`, the Potency was inconclusive: 29.1 µM [cytotoxic, single point].
For `COc1ccc(Cl)cc1NC(=O)COC(=O)C(CC(C)C)N1C(=O)C2CC=CCC2C1=O` (centres undefined), the Potency was active: 10.3 µM.
In the case of `Cc1cc(N/N=C/c2ccncc2)nc2ccccc12`, the Potency is reported as active: 6.51 µM.
For `CN(CC(=O)Nc1ccc(N2CCOCC2)cc1)C(=O)c1cc2c(s1)CCCC2`, the activity change, negative = cytotoxicity was inconclusive: -0.874%.
With `Cn1ccnc1SCC(=O)NC1CC1` the Potency was inconclusive: 29.1 µM [rising, single point].
In the case of `Cc1c(C(=O)C(=O)N2c3ccc(F)cc3CCC2C)c2ccccc2n1C` (centres undefined), the Potency is reported as active: 2.91 µM.
In the case of `CC(C)C(=O)Nc1nnc(CSCc2ccccc2F)s1`, the Potency is reported as active: 18.4 µM.
For `CC(C)CC(=O)[C@@H](O)Cc1ccc(O)cc1`, the Potency was inconclusive: 29.1 µM [rising, single point].
In the case of `O=C(Nc1cccc(S(=O)(=O)N2CCCC2)c1)c1cccnc1`, the Potency is reported as “inactive”.
With `Cc1cc(C)cc(NC(=O)Nc2ccc3nc(N4CCN(C)CC4)cc(C)c3c2)c1` the Potency was inconclusive: 14.6 µM [cytotoxic, partial curve, poor fit].
In the case of `Cc1ccc(-c2nc3ccccc3o2)cc1NC(=O)C(C)Oc1ccccc1` (centres undefined), the Potency is reported as “inactive”.
In the case of `Cc1nn(-c2ccccc2)c(N2CCCC2)c1/C=N/NC(=O)C1CC1`, the Potency is reported as inconclusive: 0.517 µM [cytotoxic, full curve, poor fit].
For `COc1ccc(/C=N/N2CCOCC2)cc1O`, the Potency was “inactive”.
In the case of `Nc1ncnc2c1C(c1ccccc1)c1c(ccc3ccccc13)O2` (centres undefined), the Potency is reported as “inactive”.
For `CCOC(=O)C1CCCN(S(=O)(=O)c2ccc(C)cc2)C1` (centres undefined), the Potency was inconclusive: 23.1 µM [cytotoxic, partial curve, poor fit].
In the case of `CCS(=O)(=O)c1nc(S(=O)(=O)c2ccc(C)cc2)c(N2CCN(C)CC2)s1`, the Potency is reported as inconclusive: 2.06 µM [rising, partial curve, poor fit].
With `C=CCn1c(SCc2ccccc2C#N)nnc1-c1ccccc1O` the Potency was inconclusive: 20.6 µM [cytotoxic, single point].
In the case of `Cc1ccc(C23CC4CC(CC(C(=O)N5CCN(C)CC5)(C4)C2)C3)cc1`, the Potency is reported as inconclusive: 6.51 µM [cytotoxic, full curve].
For `C/C(=C/C(=O)N1CCc2ccccc21)C(=O)O`, the Potency was inconclusive: 5.8 µM [rising, full curve].
In the case of `Cc1ccccc1-c1cc(C(=O)NCc2cccc(C(F)(F)F)c2)n(CC2CC(c3cccnc3)=NO2)n1` (centres undefined), the Potency is reported as inconclusive: 20.6 µM [cytotoxic, partial curve].
With `COc1ccc(NC(=O)COC(=O)c2c3c(nc4ccccc24)CCCC3)cc1Cl` the Potency was active: 16.4 µM.
For `Nc1ccc(Nc2nc(-c3cc4ccccc4oc3=O)cs2)cc1`, the Potency was inconclusive: 16.4 µM [cytotoxic, partial curve, poor fit].
With `CCn1c(-c2cc(C3CC3)nc3ccccc23)n[nH]c1=S` the Potency was inconclusive: 18.4 µM [cytotoxic, single point].
With `COC(=O)c1ccc(Cn2c(C)c(C(=O)NCc3ccc([N+](=O)[O-])cc3)sc2=O)o1` the Potency was inconclusive: 23.1 µM [cytotoxic, single point].
For `COc1cc2c(cc1OC)CN(C(=O)/C=C/c1cc(OC)c(OC)c(OC)c1)CC2`, the Potency was inconclusive: 14.6 µM [cytotoxic, partial curve, poor fit].
For `Cc1cc(C)nc(N/N=C/c2ccc(Cl)cc2)n1`, the activity change, negative = cytotoxicity was inconclusive: -18%.
For `COc1ccc(C)cc1Nc1n[n+](-c2ccccc2)c(-c2ccc(N(C)C)cc2)s1`, the Potency was “inactive”.
In the case of `O=C(c1ccc(COc2ccc3c(c2)CCC3)o1)N1CCN(c2ccccc2)CC1`, the Potency is reported as inconclusive: 7.31 µM [cytotoxic, partial curve].
In the case of `COc1ccc(N(C(=O)c2ccco2)S(=O)(=O)c2cccc([N+](=O)[O-])c2)cc1`, the Potency is reported as inconclusive: 16.4 µM [cytotoxic, partial curve, poor fit].
With `O=C(O)c1cc(N=Nc2c(O)[nH]c3ccc([N+](=O)[O-])cc23)ccc1Cl` the Potency was inconclusive: 18.4 µM [rising, single point].
For `COc1ccc(CCNc2oc(-c3ccccc3OC)nc2C#N)cc1OC`, the Potency was inconclusive: 20.6 µM [cytotoxic, partial curve].
In the case of `Clc1ccc2c(NCc3ccccn3)ncnc2c1`, the Potency is reported as inconclusive: 23.1 µM [cytotoxic, partial curve, poor fit].
In the case of `CC1=C(O)C(=O)C(c2c(C)cc(C)c(Br)c2C)=C(O)C1=O`, the Potency is reported as inconclusive: 10.3 µM [cytotoxic, partial curve, poor fit].
For `Cc1cc(NC(=O)Nc2cc(F)ccc2C)n(C)n1`, the Potency was inconclusive: 29.1 µM [rising, single point].
With `O=C(COc1ccc(F)cc1)NCC(c1ccc(Cl)cc1)N1CCCCC1` (centres undefined) the Potency was “inactive”.
With `COc1cccc(C(=O)NC2CCN(C(=O)N3c4ccccc4Sc4ccccc43)CC2)c1` the Potency was inconclusive: 16.4 µM [cytotoxic, partial curve, poor fit].
For `O=c1cc(-c2ccc([N+](=O)[O-])cc2)c2ccc(O)cc2o1`, the Potency was “inactive”.
With `Cc1cc(NC(=O)C2CC(=O)N(c3ccccc3Cl)C2)no1` (centres undefined) the Potency was “inactive”.
For `COc1ccc(CNC(=O)C[C@H]2C(=O)N(Cc3ccc(OC)cc3)C[C@@H]2Cc2ccccc2)cc1`, the Potency was active: 13 µM.
For `CC1(C)Cc2c(C#N)c(SCCOc3ccccc3)nc(N3CCOCC3)c2CO1`, the Potency was inconclusive: 29.1 µM [cytotoxic, single point].
For `COC(=O)c1c(C)[nH]c(C(=O)CSc2ccc(Cl)cc2)c1C`, the Potency was inconclusive: 16.4 µM [cytotoxic, single point].
In the case of `COc1ccc(C2CC(=O)N(C)c3ccccc3S2)cc1OC` (centres undefined), the Potency is reported as inconclusive: 29.1 µM [cytotoxic, single point].
For `COc1ccc(CCCC(=O)Nc2ccccc2F)cc1`, the Potency was inconclusive: 29.1 µM [cytotoxic, single point].
With `C#C[C@]1(O)CC[C@H]2[C@@H]3CCc4cc(O)ccc4[C@H]3CC[C@@]21C` the Potency was active: 16.4 µM.
With `O=C(CNC(=O)N1CC(=O)Nc2ccccc21)NCc1cccc(Cl)c1` the Potency was inconclusive: 14.6 µM [rising, single point].
In the case of `CCOc1cc(Br)cc(C2NC(=O)c3c(sc4c3CCN(C)C4)N2)c1O` (centres undefined), the Potency is reported as inconclusive: 23.1 µM [cytotoxic, partial curve].
With `CC(=O)c1ccc(NC(=O)CCC(=O)OCC(F)(F)C(F)F)cc1` the Potency was “inactive”.
With `CC(C)CCNC(=O)c1cc(-c2ccncc2)nc2ccc(S(=O)(=O)N3CCOCC3)cc12` the Potency was inconclusive: 0.651 µM [cytotoxic, partial curve, poor fit].
With `CCSc1cc(C)nc2c(-c3ccccc3)cnn12` the Potency was inconclusive: 16.4 µM [cytotoxic, single point].
With `c1ccc2c(CSc3ncnc4nc[nH]c34)cccc2c1` the Potency was inconclusive: 20.6 µM [cytotoxic, partial curve].
In the case of `COc1ccc(C(=O)NNC(=O)Nc2ccc(C)cc2)cc1`, the Potency is reported as “inactive”.
In the case of `COc1cc(OC)c(OC)cc1CNC(=O)c1cc(=O)c2ccccc2o1`, the Potency is reported as inconclusive: 20.6 µM [cytotoxic, single point].
With `Cc1ccc(F)cc1NC(=O)c1cccc2nccnc12` the Potency was inconclusive: 11.6 µM [cytotoxic, partial curve, poor fit].
In the case of `CC(C)(C)c1ccc(C(=O)NCC(c2ccco2)S(=O)(=O)c2ccc(F)cc2)cc1` (centres undefined), the Potency is reported as inconclusive: 25.9 µM [cytotoxic, single point].

Reference: PubChem BioAssay AID1347076 (National Center for Advancing Translational Sciences (NCATS), 2019)
% is set by controls: 0 for no effect and ±100 for the full control effect; potency is the fitted concentration of half-maximal effect.
